Reference: patent US20260158031A1, “AROMATIC HETEROCYCLIC COMPOUND, PHARMACEUTICAL COMPOSITION CONTAINING THE SAME, AND USE THEREOF” (HANG ZHOU YUHONG PHARMATECH CO., LTD., priority 2021, published 2026)

Biological target: T1, JAK3 kinase (Homo sapiens, UniProt P52333)
T1 sequence (P52333 1-1124): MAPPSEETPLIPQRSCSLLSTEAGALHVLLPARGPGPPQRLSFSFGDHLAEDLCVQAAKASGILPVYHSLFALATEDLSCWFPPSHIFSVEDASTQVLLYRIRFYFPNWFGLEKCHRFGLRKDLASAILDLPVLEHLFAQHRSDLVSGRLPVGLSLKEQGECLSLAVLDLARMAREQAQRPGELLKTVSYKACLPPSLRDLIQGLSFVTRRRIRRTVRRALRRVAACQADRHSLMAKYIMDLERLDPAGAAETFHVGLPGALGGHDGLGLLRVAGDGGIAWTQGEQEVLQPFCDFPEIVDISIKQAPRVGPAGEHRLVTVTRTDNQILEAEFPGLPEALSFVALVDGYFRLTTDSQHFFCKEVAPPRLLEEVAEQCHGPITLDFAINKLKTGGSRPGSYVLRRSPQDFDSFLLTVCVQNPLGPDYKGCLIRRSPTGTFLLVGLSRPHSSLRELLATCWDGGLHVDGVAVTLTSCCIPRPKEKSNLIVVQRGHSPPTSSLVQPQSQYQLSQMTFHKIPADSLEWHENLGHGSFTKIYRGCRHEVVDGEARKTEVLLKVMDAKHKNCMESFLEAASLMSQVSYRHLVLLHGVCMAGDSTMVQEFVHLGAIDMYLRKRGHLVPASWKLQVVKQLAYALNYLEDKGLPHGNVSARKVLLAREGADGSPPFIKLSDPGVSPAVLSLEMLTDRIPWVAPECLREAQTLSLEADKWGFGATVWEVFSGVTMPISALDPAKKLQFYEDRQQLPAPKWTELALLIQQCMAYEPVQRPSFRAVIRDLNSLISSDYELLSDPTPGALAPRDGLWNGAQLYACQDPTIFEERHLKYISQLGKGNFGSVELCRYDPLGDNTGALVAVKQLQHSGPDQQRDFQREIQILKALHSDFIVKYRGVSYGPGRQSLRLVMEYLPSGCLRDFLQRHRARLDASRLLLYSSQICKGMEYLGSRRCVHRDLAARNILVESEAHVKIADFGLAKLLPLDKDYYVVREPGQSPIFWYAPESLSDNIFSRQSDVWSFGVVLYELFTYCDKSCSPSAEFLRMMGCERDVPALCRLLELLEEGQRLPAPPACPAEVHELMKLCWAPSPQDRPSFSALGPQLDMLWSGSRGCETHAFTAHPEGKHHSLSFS
Test: Mobility shift assay, in vitro JAK3 kinase inhibitory activity
Assay type: biochemical
Details: Example 136
Procedure: A Mobility shift assay was adopted to detect compounds to be tested (see list below) for in vitro inhibitory activity on the enzyme activity of JAK3 kinase.
The compound was dissolved in 100% DMSO to formulate a 10 mM stock solution, which was stored in a −20° C. refrigerator with protection from light.
The compounds were diluted with gradients into solutions with a final concentration of 100 times in a 384-well plate. Then 250 nL was transferred to a 384 reaction plate with Echo550 for later use. […]
Among them: Conversion %_sample was the conversion rate reading of the sample; Conversion %_min was the mean value of the negative control wells, representing the conversion rate reading of the wells without enzyme activity; Conversion % max was the mean value of the positive control wells, representing the conversion rate reading of the wells without compound inhibition; and % Inhibition represented the percentage inhibition rate. […]

Compound: CCS(=O)(=O)N1CCN(c2ccc(Nc3ncc(C(N)=O)c(NC4CC4)n3)cc2)CC1 [Cerdulatinib, reference compound]
- IC50: 650 pM
